In PubChem BioAssay AID1347426 (Functional Genomics Laboratory (NCATS/FGL), 2020):
Screen size: about 31,000 sequences; about 1,400 (4.5%) were called active.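 How the source made its calls: active means median seed-adjusted z-score above 1 or below -1; inactive means the rest.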 Some of the results follow.

Test: Novel Modifiers of Survival Motor Neuron (SMN) Protein: Gene Identification via Genome-wide siRNA Screen;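 further: luminescence tracks full-length SMN protein made from the SMN2 reporter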
Conditions: HEK293T SMN2-luciferase reporter, siRNA knockdown, 72 h; actives lie on both sides
In short: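 HEK293T cells stably carrying an SMN2 promoter/splicing cassette–luciferase reporter were reverse-transfected with 1 pmol siRNA per well (druggable-genome library, 3 siRNAs per gene) and grown 72 h at 37 °C. Luminescence, normalized to negative-control siRNA and log10-transformed, was scored as MAD.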

Row | Sequence | median seed-adjusted z-score
1 | CAUUGGACAGUAUUACAAATT against UBE2U | inactive: -0.0545
2 | GGACCAGGCCUAUAGCUAUTT against WARS | inactive: -0.724
3 | GCCCUUGACUUCCUGCAUATT against MKNK1 | inactive: 0.221
4 | AGAACGACAGGGACAUUUATT against MAPK15 | inactive: 0.0724
5 | CCAAGAAAGUGAAAGACCATT against F12 | inactive: 0.345
6 | GAAUUGGGCUUGUCUACGUTT against RHBDL3 | inactive: 0.56
7 | CAACAACAGGUAUGAGAUATT against ACCN2 | inactive: -0.597
8 | GAACCGAGACAACUACAUUTT against TLE2 | inactive: 0.00566
9 | CUAUGAAGCCCGUCCAGAATT against HSPA5 | inactive: 0.19
10 | GACCUCUACUAAACGCAAATT against CCNI | inactive: -0.174
11 | GGAUUUUGAUGCUUUCGUATT against IL18RAP | inactive: -0.681
12 | GAAGUGUACGCAGCAGGAATT against KCNAB3 | inactive: 0.0697
13 | CAUCCGGAUUGUUACGAGATT against EMR4 | inactive: -0.475
14 | GGGAGAGCCGCACAACAUATT against SOX15 | inactive: -0.376
15 | GACUACUUAUGAAUUUGCATT against HSD17B13 | inactive: -0.329
16 | CCAAUGUGCUCAGACGUAATT against KIF4A | inactive: -0.156
17 | CAGUGGGAACGACAACUUUTT against HNRPA1P4 | inactive: -0.906
18 | CCGGAGUUACGAUGACUUUTT against SNX26 | inactive: -0.788
19 | GAACUCGCAUGGUUAUGAATT against PLCB4 | inactive: -0.521
20 | GCUUCAUCGUGAUCGCUGATT against RPIA | inactive: 0.0803
21 | GGUGGACUAAAAACCGAAATT against ART3 | inactive: -0.434
22 | GGCCAUGGUUUGUUGGAGATT against GSTM4 | inactive: -0.204
23 | CCACAGUGCCCAAAACUGATT against ERG | inactive: 0.629

Row | Sequence | median seed-adjusted z-score
24 | CCAGCAGCGCGGUCUAUUATT against SOX18 | inactive: 0.0663
25 | GCUUUACCAGGUUAUGGAATT against SIK1 | inactive: 0.887
26 | GCAUUGGAGGUGAUCCUUUTT against SUCLG1 | inactive: -0.63
27 | ACUGAUCUAUGAAUCUGUUTT against GSTO2 | inactive: 0.142
28 | CCACAUCUCAAGUCCACUUTT against PPP1R1A | inactive: -0.529
29 | GGAUCUACAUCCAUCGCUATT against ADCY8 | inactive: 0.103
30 | GGCAUGACAUUGACUGUCATT against LOXL3 | inactive: 0.517
31 | CAGGAGAAGUUUGAACUAATT against DCTN1 | inactive: 0.25
32 | AAACUACAGCGAUAUCUGATT against MICB | inactive: 0.162
33 | CUCUUGAUAUCCUUACUAATT against DMRTA1 | inactive: -0.162
34 | UCAACCUCAUGGACUUUAATT against SLC5A5 | active: 1.01
35 | GGUGAACGAUUUCUCCAGATT against NEIL2 | inactive: -0.256
36 | GGAUUGACUCUAUCACUGATT against DLGAP1 | inactive: 0.357
37 | GGAUCCUAUUGAGAGGCUATT against HS2ST1 | inactive: 0.421
38 | CGACUACCCAUACUCUCCATT against CDC34 | inactive: 0
39 | CACUUUCGAUUCUUGGAAATT against PPP1R3C | inactive: 0
40 | AGAACGUGCCCUUAACUAATT against KCNE1 | inactive: -0.347
41 | AUGUGACCCUGGUGGAUAATT against SGCA | inactive: 0.144
42 | AGAUGAAGAUCGGACUUCUTT against WDFY1 | inactive: 0.979
43 | GGAUCCAUAUGAAGCAUGUTT against UGDH | inactive: 0.674
44 | GCUUUGAAUGACUCAGUGATT against DNAJC12 | inactive: 0.248
45 | CCACGCUCAUCAUCUCCAATT against SLC4A2 | inactive: -0.539
46 | GUUGCUCUCCGAAAAUUUATT against ACVR1 | inactive: -0.217

Row | Sequence | median seed-adjusted z-score
47 | UGAUGUUCCUGUACAACUATT against SLC37A2 | inactive: 0.134
48 | GAAAAAGUGGGAUUUAGAATT against FCGR1A | inactive: 0.869
49 | CAAUCUUAGACCCAACAAATT against RAB23 | inactive: 0.45
50 | AGCCCUAUCUGACUUCGCATT against REPIN1 | inactive: -0.0614
51 | GGGAUAGCAGUGGAAAUAATT against NUDT9 | inactive: 0.277
52 | GCAUCAUGUCUUACGCGUUTT against SNX9 | inactive: 0.684
53 | GCUAUGUCCUAAUAGAACATT against ZNF572 | inactive: 0.237
54 | CAACUUGUUUGACGACGAATT against KLK1 | inactive: -0.216
55 | CUGCAACCGUGCACACGAATT against GJD3 | inactive: -0.251
56 | GGCACGUUCUGAUCCAGAUTT against ACADM | inactive: 0.127
57 | CAACUCGCUUAAUCAAGUATT against GBA3 | inactive: 0.246
58 | CAGAUAUAAAAGCAUGUAATT against CYP39A1 | inactive: 0.196
59 | GGGUAUCAAUGUGACCGAUTT against MYH9 | inactive: -0.517
60 | CAAUUUUCCUGCAAGAAUATT against CD38 | inactive: 0.192
61 | GAUCAGUAAUAUACCACAATT against MTFMT | inactive: -0.0119
62 | GCCUCUAUACGUCCUUCUUTT against SLC26A1 | inactive: 0.377
63 | CGCGGAAACUUGUCCCUAUTT against SP2 | inactive: -0.617
64 | GCAUCAUCUCAGCACCAGATT against SLC5A12 | inactive: 0.279
65 | CGGCCUUGAUAAACUGAAATT against SNAPC3 | active: -1.72
66 | GGGCCGUGCUGAUUGAGAATT against GPX2 | inactive: -0.21
67 | GCACUUACAUUGAAGGGUUTT against POLH | inactive: -0.446
68 | CAGUGGAUAUAUCCAGUCATT against RAB20 | inactive: -0.334
69 | CCAUUGUCACUGUAUUACUTT against CNIH4 | inactive: -0.0718
